Reference: PubChem BioAssay AID330 (DTP/NCI, 2004)
The list is a part of this screen's results and no random one: it gathers tests that were run many times, whatever their T/C, doses with no T/C, and many T/C values between a quarter and a half above the control. Other doses and runs of a compound stand elsewhere. T/C gives the treated animals as a percentage of the vehicle group. Some doses have a count of surviving animals in place of a T/C: the source holds a T/C of zero for them, seemingly a mark for toxic or unscored doses. Some doses without a T/C left all or most animals alive at the check, yet need not have been tolerated: survival well below the control is almost never listed, so the zero probably covers shortened survival too. Counts of survivors are from the toxicity check (mostly the fifth day) where no day follows; animals may have died later. Schedules are NCI's codes, read here as Q, the interval in days (D) or hours (H), X, the number of doses. Some doses were run more than once; their values stand side by side, smallest first. Brackets with × give the number of equal values in this list. For survival time, the PubChem record calls one and a half times the control and up active, and a quarter to a half above the control has no call in these data; cut-offs in other NCI protocols can differ. Some T/C values are followed by the survivors on the day toxicity was checked, most often the fifth; where none is given, no animal had died by that day.

Test system: P388 leukemia ip, CD2F1 mice, survival T/C
Test: NCI In Vivo Anticancer Drug Screen. Data for tumor model P388 Leukemia (intraperitoneal) in CD2F1 (CDF1) mice
Conditions: T/C endpoint: median survival time, higher T/C = longer survival
[1] = dose: 200.0 mg/kg/injection, schedule: Q04DX002 (ip), vehicle: saline with Tween-80
[2] = dose: 400.0 mg/kg/injection, schedule: Q04DX002 (ip), vehicle: saline with Tween-80
[3] = dose: 100.0 mg/kg/injection, schedule: Q04DX002 (ip), vehicle: saline with Tween-80
[4] = dose: 50.0 mg/kg/injection, schedule: Q01DX009 (ip), vehicle: Klucel (hydroxypropylcellulose) (HPC)
[5] = dose: 200.0 mg/kg/injection, schedule: Q01DX009 (ip), vehicle: Klucel (hydroxypropylcellulose) (HPC)
[6] = dose: 100.0 mg/kg/injection, schedule: Q01DX005 (ip), vehicle: saline with Tween-80
[7] = dose: 200.0 mg/kg/injection, schedule: Q01DX005 (ip), vehicle: saline with Tween-80
[8] = dose: 12.5 mg/kg/injection, schedule: Q01DX009 (ip), vehicle: Klucel (hydroxypropylcellulose) (HPC)
[9] = dose: 240.0 mg/kg/injection, schedule: Q01DX005 (ip), vehicle: saline with Tween-80
[10] = dose: 100.0 mg/kg/injection, schedule: Q01DX009 (ip), vehicle: saline with Tween-80
[11] = dose: 200.0 mg/kg/injection, schedule: Q01DX009 (ip), vehicle: saline with Tween-80
[12] = dose: 100.0 mg/kg/injection, schedule: Q01DX009 (ip), vehicle: Klucel (hydroxypropylcellulose) (HPC)
[13] = dose: 400.0 mg/kg/injection, schedule: Q04DX003 (ip), vehicle: saline
[14] = dose: 50.0 mg/kg/injection, schedule: Q01DX009 (ip), vehicle: saline with Tween-80

SMILES: C/C(=N\NC(N)=Nc1ccccc1)c1ccc2c(c1)Cc1ccccc1-2
- survivor count [1]: 1 of 6
- survivor count [2]: 1 of 6

SMILES: CC1=C2C3OC(=O)C(C)C3CCC2(C)CCC1=O (centres undefined)
- survivor count [3]: 6 of 6
- survivor count [1]: 2 of 6
- survivor count [2]: 1 of 6

SMILES: O=[N+]([O-])c1ccc(Cl)nc1Sc1ncccn1
- survivor count [4]: 5 of 6
- survivor count [5]: 0 of 6

SMILES: CC(=O)CS(F)(F)(F)(F)F
- survivor count [6]: 0 of 5
- survivor count [7]: 0 of 5

SMILES: O=S(=O)(O)SCCNCCc1ccccn1
- survivor count (dose: 200.0 mg/kg/injection, schedule: Q01DX005 (ip), vehicle: water): 0 of 6

SMILES: CCCCC[P+](c1ccccc1)(c1ccccc1)c1ccccc1
- T/C (dose: 6.25 mg/kg/injection, schedule: Q01DX009 (ip), vehicle: Klucel (hydroxypropylcellulose) (HPC)): 127 % of control
- T/C [8]: 129 % of control

SMILES: O=C(OC1(c2nccc3ccccc23)CCCCC1)c1ccccc1
- survivor count [8]: 6 of 6

SMILES: O=C1C(Cl)=C(NCCCC2CCCN3CCCCC23)C(=O)c2ccccc21 (centres undefined)
- survivor count (dose: 200.0 mg/kg/injection, schedule: Q04DX002 (ip), vehicle: Klucel (hydroxypropylcellulose) (HPC)): 0 of 6
- survivor count (dose: 400.0 mg/kg/injection, schedule: Q04DX002 (ip), vehicle: Klucel (hydroxypropylcellulose) (HPC)): 0 of 6

SMILES: CCNCC(=O)Nc1ccc2c(c1)C(=O)c1ccc(NC(=O)CNCC)cc1C2=O
- T/C [3]: 130 % of control
- survivor count [2]: 5 of 6 and 6 of 6

SMILES: Nc1ccc2c(SCCSc3c4ccccc4nc4cc(N)ccc34)c3ccccc3nc2c1
- survivor count [9]: 3 of 6

SMILES: CNCC(O)CC12CCC(c3ccccc31)c1ccccc12 (centres undefined)
- survivor count [5]: 0 of 6

SMILES: COc1cc(C)ccc1C1=NC(C)(c2ccc(C)cc2OC)NC1=S (centres undefined)
- survivor count (dose: 150.0 mg/kg/injection, schedule: Q01DX009 (ip), vehicle: Klucel (hydroxypropylcellulose) (HPC)): 5 of 6

SMILES: Cc1cc(OC(=O)Nc2cc([N+](=O)[O-])ccc2C)c(Br)cc1Cl
- survivor count [10]: 3 of 6
- survivor count [11]: 1 of 6

SMILES: COC(=O)c1nc(N)nc(C(=O)OC)c1C(=O)c1c(C)[nH]c2ccccc12
- survivor count [9]: 1 of 6

SMILES: COCC(=O)Nc1ncc([N+](=O)[O-])s1
- survivor count [4]: 6 of 6
- survivor count [12]: 6 of 6
- survivor count [5]: 6 of 6

SMILES: CN=C(N)NN=C(c1ccccc1)c1ccccc1
- survivor count [1]: 0 of 6
- survivor count [2]: 0 of 6

SMILES: BrCc1cn2ccccc2n1
- survivor count (dose: 50.0 mg/kg/injection, schedule: Q01DX009 (ip), vehicle: saline): 6 of 6
- survivor count (dose: 100.0 mg/kg/injection, schedule: Q01DX009 (ip), vehicle: saline): 5 of 6
- survivor count (dose: 200.0 mg/kg/injection, schedule: Q01DX009 (ip), vehicle: saline): 2 of 6

SMILES: O=S(=O)(Nc1ccc2ccccc2c1)N1CCCCC1
- survivor count (dose: 400.0 mg/kg/injection, schedule: Q01DX009 (ip), vehicle: Klucel (hydroxypropylcellulose) (HPC)): 5 of 5

SMILES: NCC1OC(OC2C(CO)OC(OC3C(O)C(N)CC(N)C3OC3OC(CN)C(O)C(O)C3N)C2O)C(N)C(O)C1O (centres undefined)
- survivor count (dose: 400.0 mg/kg/injection, schedule: Q01DX001 (ip), vehicle: saline): 1 of 6

SMILES: NC(=NCc1ccncc1)N/N=C\c1ccnc2ccccc12
- survivor count (dose: 240.0 mg/kg/injection, schedule: Q01DX005 (ip), vehicle: saline): 0 of 6

SMILES: C=C1C(=O)OC2/C=C(CO)/C=C\C3OC3(C)CC(OC(=O)/C(=C/C)CO)C12 (centres undefined)
- T/C (dose: 50.0 mg/kg/injection, schedule: Q01DX005 (ip), vehicle: Klucel (hydroxypropylcellulose) (HPC)): 125 % of control
- survivor count (dose: 100.0 mg/kg/injection, schedule: Q01DX005 (ip), vehicle: Klucel (hydroxypropylcellulose) (HPC)): 0 of 6 (2×)
- survivor count (dose: 200.0 mg/kg/injection, schedule: Q01DX005 (ip), vehicle: Klucel (hydroxypropylcellulose) (HPC)): 0 of 6

SMILES: O=c1[nH]c(=O)c2cc([N+](=O)[O-])cc([N+](=O)[O-])c2[nH]1
- survivor count (dose: 200.0 mg/kg/injection, schedule: Q04DX003 (ip), vehicle: saline): 6 of 6
- survivor count [13]: 1 of 6

SMILES: Fc1ccc(Nc2c3ccccc3nc3ccccc23)cc1
- T/C [14]: 125 % of control

SMILES: Fc1ccc(Nc2nnc(-c3ccc(Cl)cc3Cl)o2)cc1
- survivor count [6]: 6 of 6

SMILES: O=NN(C(=O)NC1CC1)C1CC1
- T/C (dose: 200.0 mg/kg/injection, schedule: Q01DX001 (ip), vehicle: water): 130 % of control
- survivor count (dose: 400.0 mg/kg/injection, schedule: Q01DX001 (ip), vehicle: water): 0 of 6

SMILES: O=C1N[C@H]2[C@H](CS[C@H]2CCCCC(=O)N(CCP(c2ccccc2)c2ccccc2)CCP(c2ccccc2)c2ccccc2)N1
- T/C [4]: 135 % of control
- T/C [12]: 127 % of control
- T/C [5]: 135 % of control [4 of 6 alive]

SMILES: CN1CCC/C1=C/C(=O)c1ccccc1
- survivor count [13]: 0 of 6

SMILES: CCOc1ccc(Nc2ncnc3nc[nH]c23)cc1CN(CCCl)CCCl
- survivor count (dose: 0.29 mg/kg/injection, schedule: Q04DX003 (ip), vehicle: saline): 6 of 6
- survivor count (dose: 0.44 mg/kg/injection, schedule: Q04DX003 (ip), vehicle: saline): 6 of 6
- survivor count (dose: 0.66 mg/kg/injection, schedule: Q04DX003 (ip), vehicle: saline): 6 of 6
- survivor count (dose: 1.0 mg/kg/injection, schedule: Q04DX003 (ip), vehicle: saline): 6 of 6
- T/C (dose: 1.32 mg/kg/injection, schedule: Q01DX009 (ip), vehicle: saline): 145 % of control
- T/C (dose: 3.13 mg/kg/injection, schedule: Q04DX003 (ip), vehicle: saline): 136 % of control
- T/C (dose: 6.25 mg/kg/injection, schedule: Q04DX003 (ip), vehicle: saline): 140 % of control
- survivor count (dose: 12.5 mg/kg/injection, schedule: Q04DX003 (ip), vehicle: saline): 1 of 6

SMILES: CC(=O)N1CCc2ccccc2C1C1NCCc2ccccc21 (centres undefined)
- survivor count (dose: 400.0 mg/kg/injection, schedule: Q04DX003 (ip), vehicle: Klucel (hydroxypropylcellulose) (HPC)): 0 of 6

SMILES: CC(C)CC(=O)C1C(c2ccccc2)CC(=O)C(C(C)C)C1c1ccccc1 (centres undefined)
- survivor count [7]: 5 of 5

SMILES: C[N+](C)(C)CCC(=O)c1ccco1
- survivor count [14]: 2 of 6
- survivor count [10]: 0 of 6
- survivor count [11]: 0 of 6

SMILES: O=C(CSC(SCC(=O)Nc1ccccc1)c1ccccc1)Nc1ccccc1
- survivor count (dose: 240.0 mg/kg/injection, schedule: Q01DX005 (ip), vehicle: Klucel (hydroxypropylcellulose) (HPC)): 6 of 6

SMILES: CCCCCCCCCCC[N+](C)([O-])CCCCCC[N+](C)([O-])CCCCCCCCCCC (centres undefined)
- survivor count [10]: 2 of 6
- survivor count [11]: 0 of 6

SMILES: N#C/C(=N\NC(=O)c1ccccc1Cl)c1ccccc1Cl
- survivor count [7]: 5 of 6

SMILES: Cc1ccc(/C=C/C(=N/Nc2ccccc2)C(C)CN(C)C)cc1 (centres undefined)
- survivor count [9]: 0 of 6

SMILES: CCCC1OC(/C=C/c2ccccc2)OCC1CC (centres undefined)
- T/C (dose: 400.0 mg/kg/injection, schedule: Q01DX009 (ip), vehicle: saline with Tween-80): 125 % of control

SMILES: O=C1CC2(Cl)CN3c4ccccc4C(=O)CC3(Cl)CN2c2ccccc21 (centres undefined)
- survivor count (dose: 100.0 mg/kg/injection, schedule: Q04DX003 (ip), vehicle: alcohol): 2 of 6
- survivor count (dose: 200.0 mg/kg/injection, schedule: Q04DX003 (ip), vehicle: alcohol): 0 of 6
- survivor count (dose: 400.0 mg/kg/injection, schedule: Q04DX003 (ip), vehicle: alcohol): 0 of 6
